# In paper PMC10830559:
# Sequences of proteins named here, by UniProt entry; tags and fusion partners are left off.
# UniProt Q8IVF7: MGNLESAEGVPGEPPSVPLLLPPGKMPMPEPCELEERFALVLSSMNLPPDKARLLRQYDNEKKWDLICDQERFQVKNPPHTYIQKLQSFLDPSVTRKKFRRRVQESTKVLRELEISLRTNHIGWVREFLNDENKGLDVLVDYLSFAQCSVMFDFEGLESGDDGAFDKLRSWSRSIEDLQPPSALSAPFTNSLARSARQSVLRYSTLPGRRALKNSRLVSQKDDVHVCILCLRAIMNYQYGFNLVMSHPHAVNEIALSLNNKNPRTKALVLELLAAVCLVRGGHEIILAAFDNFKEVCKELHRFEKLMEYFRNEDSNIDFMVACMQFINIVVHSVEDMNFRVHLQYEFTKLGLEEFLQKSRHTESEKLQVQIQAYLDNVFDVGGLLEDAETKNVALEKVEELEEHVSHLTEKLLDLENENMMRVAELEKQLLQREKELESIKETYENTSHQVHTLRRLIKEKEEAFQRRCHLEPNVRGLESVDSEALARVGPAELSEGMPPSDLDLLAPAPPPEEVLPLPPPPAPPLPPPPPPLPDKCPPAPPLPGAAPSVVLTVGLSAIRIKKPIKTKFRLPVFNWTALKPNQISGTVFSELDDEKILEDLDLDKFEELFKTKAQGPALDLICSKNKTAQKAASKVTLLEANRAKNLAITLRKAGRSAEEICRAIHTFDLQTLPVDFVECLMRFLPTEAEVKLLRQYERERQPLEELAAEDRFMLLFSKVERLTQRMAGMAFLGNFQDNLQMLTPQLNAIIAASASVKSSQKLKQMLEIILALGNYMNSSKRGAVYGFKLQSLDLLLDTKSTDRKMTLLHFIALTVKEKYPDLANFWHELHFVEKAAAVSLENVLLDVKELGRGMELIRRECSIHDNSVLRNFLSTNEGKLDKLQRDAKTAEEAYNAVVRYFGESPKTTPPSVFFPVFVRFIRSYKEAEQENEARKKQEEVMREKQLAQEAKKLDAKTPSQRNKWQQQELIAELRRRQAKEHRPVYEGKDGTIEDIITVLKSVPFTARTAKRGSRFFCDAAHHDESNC
# Results are given in words; binding and its absence hold for the method and conditions named. Binding seen in cells or lysates may run through a third protein. Where a sequence is shown, tags or fusion partners need not be part of it.
# Target: T1, HA-GFP BCAR3 K334A (UniProt O75815)
# T1 sequence: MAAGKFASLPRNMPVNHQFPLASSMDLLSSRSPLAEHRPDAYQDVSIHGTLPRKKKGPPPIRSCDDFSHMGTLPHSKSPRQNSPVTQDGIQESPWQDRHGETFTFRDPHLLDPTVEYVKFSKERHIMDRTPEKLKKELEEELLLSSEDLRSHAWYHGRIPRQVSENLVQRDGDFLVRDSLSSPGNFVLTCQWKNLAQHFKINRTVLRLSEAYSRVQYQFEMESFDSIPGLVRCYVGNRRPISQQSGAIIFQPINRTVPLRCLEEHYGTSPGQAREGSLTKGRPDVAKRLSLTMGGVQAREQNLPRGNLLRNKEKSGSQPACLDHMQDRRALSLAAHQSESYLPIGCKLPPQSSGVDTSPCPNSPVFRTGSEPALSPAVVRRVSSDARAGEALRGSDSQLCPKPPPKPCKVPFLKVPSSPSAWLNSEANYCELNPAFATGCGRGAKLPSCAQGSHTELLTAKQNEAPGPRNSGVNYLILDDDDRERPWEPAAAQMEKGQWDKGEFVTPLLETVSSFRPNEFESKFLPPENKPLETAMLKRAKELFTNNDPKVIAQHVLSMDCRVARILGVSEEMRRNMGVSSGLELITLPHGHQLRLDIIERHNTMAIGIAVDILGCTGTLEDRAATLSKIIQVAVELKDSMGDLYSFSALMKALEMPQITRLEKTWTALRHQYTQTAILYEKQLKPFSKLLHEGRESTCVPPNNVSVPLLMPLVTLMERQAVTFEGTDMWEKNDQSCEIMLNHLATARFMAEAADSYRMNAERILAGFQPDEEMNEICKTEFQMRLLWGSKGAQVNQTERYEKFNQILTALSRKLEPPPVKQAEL
# Test: proximity ligation; Duolink PLA with HA (mouse) and FLAG (rabbit) antibodies on methanol-fixed engineered MDA-MB-231 cells; confocal spinning disk, dots per cell
substance,measurement,value
Flag-FMNL3 (from UniProt Q8IVF7 1-1028),binding,no binding
